Some of the results follow.
Experiments:
Test in all cases: glycan array binding signal (z-score within array); higher = stronger binding
Settings in all cases: glycan notation: IUPAC condensed, linker removed
[1] = target: GlcNAc(b1-3)Gal(b1-4)GlcNAc(b1-3)Gal(b1-4)GlcNAc(b1-3)Gal(b1-4)GlcNAc(b1-3)Gal(b1-4)GlcNAc(b1-2)[GlcNAc(b1-3)Gal(b1-4)GlcNAc(b1-3)Gal(b1-4)GlcNAc(b1-3)Gal(b1-4)GlcNAc(b1-3)Gal(b1-4)GlcNAc(b1-6)]Man(a1-6)[GlcNAc(b1-3)Gal(b1-4)GlcNAc(b1-3)Gal(b1-4)GlcNAc(b1-3)Gal(b1-4)GlcNAc(b1-3)Gal(b1-4)GlcNAc(b1-2)Man(a1-3)]Man(b1-4)GlcNAc(b1-4)[Fuc(a1-6)]GlcNAc
In short: (§1)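 From the Consortium for Functional Glycomics database, 3228 arrays were curated, keeping only those whose protein sequence was available. Binding is given as a within-array Z-score averaged across arrays sharing a protein sequence and across linkers. Negative Z-scores can be read as non-binding.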

[2] = target: GlcNAc(b1-3)Gal(b1-4)GlcNAc(b1-3)Gal(b1-4)GlcNAc(b1-3)GalNAc
In short: as §1

[3] = target: GlcNAc(b1-3)Gal(b1-4)GlcNAc(b1-3)GalNAc
In short: as §1

[4] = target: GlcNAc(b1-3)Gal(b1-4)GlcNAc(b1-3)[GlcNAc(b1-3)Gal(b1-4)GlcNAc(b1-3)]GalNAc
In short: as §1

[5] = target: GlcNAc(b1-3)Gal(b1-4)GlcNAc(b1-6)[Gal(b1-3)]GalNAc
In short: as §1

[6] = target: GlcNAc(b1-3)Gal(b1-4)GlcNAc(b1-6)[GlcNAc(b1-3)Gal(b1-3)]GalNAc
In short: as §1

[7] = target: GlcNAc(b1-3)Gal(b1-4)GlcNAc(b1-6)[GlcNAc(b1-3)]Gal(b1-4)GlcNAc
In short: as §1

GlcNAc(b1-3)GalNAc = target: GlcNAc(b1-3)GalNAc
In short: as §1

GlcNAc(b1-3)Man = target: GlcNAc(b1-3)Man
In short: as §1

[8] = target: GlcNAc(b1-3)[GlcNAc(b1-4)][GlcNAc(b1-6)]GlcNAc
In short: as §1

[9] = target: GlcNAc(b1-3)[GlcNAc(b1-6)]Gal(b1-4)GlcNAc
In short: as §1

[10] = target: GlcNAc(b1-3)[GlcNAc(b1-6)]GalNAc
In short: as §1

[11] = target: GlcNAc(b1-4)Gal(b1-4)GlcNAc
In short: as §1

GlcNAc(b1-4)GlcNAc = target: GlcNAc(b1-4)GlcNAc
In short: as §1

[12] = target: GlcNAc(b1-4)GlcNAc(b1-4)GlcNAc
In short: as §1

[13] = target: GlcNAc(b1-4)GlcNAc(b1-4)GlcNAc(b1-4)GlcNAc(b1-4)GlcNAc
In short: as §1

[14] = target: GlcNAc(b1-4)GlcNAc(b1-4)GlcNAc(b1-4)GlcNAc(b1-4)GlcNAc(b1-4)GlcNAc
In short: as §1

[15] = target: GlcNAc(b1-4)[GlcNAc(b1-6)]GalNAc
In short: as §1

[16] = target: GlcNAc(b1-6)Gal(b1-4)GlcNAc
In short: as §1

GlcNAc(b1-6)GalNAc = target: GlcNAc(b1-6)GalNAc
In short: as §1

[17] = target: GlcNAc6S(b1-3)Gal(b1-4)GlcNAc
In short: as §1

Kdn(a2-3)Gal(b1-3)GalNAc = target: Kdn(a2-3)Gal(b1-3)GalNAc
In short: as §1

Kdn(a2-3)Gal(b1-3)GlcNAc = target: Kdn(a2-3)Gal(b1-3)GlcNAc
In short: as §1

Kdn(a2-3)Gal(b1-4)Glc = target: Kdn(a2-3)Gal(b1-4)Glc
In short: as §1

Kdn(a2-3)Gal(b1-4)GlcNAc = target: Kdn(a2-3)Gal(b1-4)GlcNAc
In short: as §1

[18] = target: Kdn(a2-3)Gal(b1-4)[Fuc(a1-3)]GlcNAc
In short: as §1

Kdn(a2-6)Gal(b1-4)GlcNAc = target: Kdn(a2-6)Gal(b1-4)GlcNAc
In short: as §1

[19] = target: Man(a1-2)Man(a1-2)Man(a1-3)Man
In short: as §1

[20] = target: Man(a1-2)Man(a1-2)Man(a1-6)[Man(a1-3)]Man
In short: as §1

Man(a1-2)Man(a1-3)Man = target: Man(a1-2)Man(a1-3)Man
In short: as §1

[21] = target: Man(a1-2)Man(a1-3)[Man(a1-2)Man(a1-6)]Man
In short: as §1

[22] = target: Man(a1-2)Man(a1-3)[Man(a1-2)Man(a1-6)]Man(a1-6)[Man(a1-2)Man(a1-2)Man(a1-3)]Man
In short: as §1

[23] = target: Man(a1-2)Man(a1-3)[Man(a1-2)Man(a1-6)]Man(a1-6)[Man(a1-2)Man(a1-2)Man(a1-3)]Man(b1-4)GlcNAc(b1-4)GlcNAc
In short: as §1

[24] = target: Man(a1-2)Man(a1-3)[Man(a1-6)]Man(a1-6)[Man(a1-2)Man(a1-3)]Man(b1-4)GlcNAc(b1-4)GlcNAc
In short: as §1

[25] = target: Man(a1-2)Man(a1-6)[Man(a1-3)]Man(a1-6)[Man(a1-2)Man(a1-2)Man(a1-3)]Man
In short: as §1

[26] = target: Man(a1-2)Man(a1-6)[Man(a1-3)]Man(a1-6)[Man(a1-2)Man(a1-2)Man(a1-3)]Man(b1-4)GlcNAc(b1-4)GlcNAc
In short: as §1

Man(a1-3)[Man(a1-6)]Man = target: Man(a1-3)[Man(a1-6)]Man
In short: as §1

[27] = target: Man(a1-3)[Man(a1-6)]Man(a1-6)[Man(a1-2)Man(a1-3)]Man(b1-4)GlcNAc(b1-4)GlcNAc
In short: as §1

[28] = target: Man(a1-3)[Man(a1-6)]Man(a1-6)[Man(a1-3)]Man
In short: as §1

[29] = target: Man(a1-3)[Man(a1-6)]Man(a1-6)[Man(a1-3)]Man(b1-4)GlcNAc(b1-4)GlcNAc
In short: as §1

[30] = target: Man(a1-3)[Man(a1-6)]Man(b1-4)GlcNAc(b1-4)GlcNAc
In short: as §1

[31] = target: Man(a1-3)[Man(a1-6)]Man(b1-4)GlcNAc(b1-4)[Fuc(a1-6)]GlcNAc
In short: as §1

Man(a1-6)Man = target: Man(a1-6)Man
In short: as §1

Man(b1-4)GlcNAc = target: Man(b1-4)GlcNAc
In short: as §1

MurNAc(b1-4)GlcNAc = target: MurNAc(b1-4)GlcNAc
In short: as §1

B1: MUB70 (Lactobacillus reuteri) (protein)
chain: CVHVQYIDGETDQMLRQDDLDGYTDETIPYSTAEGIKKFEGDGYELFKDNFPAGEKFDNDDTNDQFYTVIF
glycan array binding signal (z-score) [1]: 0.318 | glycan array binding signal (z-score) [2]: -0.258 | glycan array binding signal (z-score) [3]: 0.373 | glycan array binding signal (z-score) [4]: 0.172 | glycan array binding signal (z-score) [5]: 0.191 | glycan array binding signal (z-score) [6]: 0.645 | glycan array binding signal (z-score) [7]: -0.335 | glycan array binding signal (z-score) (GlcNAc(b1-3)GalNAc): -0.402 | glycan array binding signal (z-score) (GlcNAc(b1-3)Man): -0.087 | glycan array binding signal (z-score) [8]: -0.31 | glycan array binding signal (z-score) [9]: -0.351 | glycan array binding signal (z-score) [10]: 0.148 | glycan array binding signal (z-score) [11]: 0.442 | glycan array binding signal (z-score) (GlcNAc(b1-4)GlcNAc): -0.21 | glycan array binding signal (z-score) [12]: -0.394 | glycan array binding signal (z-score) [13]: -0.275 | glycan array binding signal (z-score) [14]: -0.508 | glycan array binding signal (z-score) [15]: -0.025 | glycan array binding signal (z-score) [16]: 0.571 | glycan array binding signal (z-score) (GlcNAc(b1-6)GalNAc): -0.234 | glycan array binding signal (z-score) [17]: 0.247 | glycan array binding signal (z-score) (Kdn(a2-3)Gal(b1-3)GalNAc): 0.066 | glycan array binding signal (z-score) (Kdn(a2-3)Gal(b1-3)GlcNAc): -0.507 | glycan array binding signal (z-score) (Kdn(a2-3)Gal(b1-4)Glc): 0.004 | glycan array binding signal (z-score) (Kdn(a2-3)Gal(b1-4)GlcNAc): -0.601 | glycan array binding signal (z-score) [18]: -0.04 | glycan array binding signal (z-score) (Kdn(a2-6)Gal(b1-4)GlcNAc): 0.34 | glycan array binding signal (z-score) [19]: 0.872 | glycan array binding signal (z-score) [20]: -0.556 | glycan array binding signal (z-score) (Man(a1-2)Man(a1-3)Man): -0.605 | glycan array binding signal (z-score) [21]: -0.952 | glycan array binding signal (z-score) [22]: 0.173 | glycan array binding signal (z-score) [23]: -0.427 | glycan array binding signal (z-score) [24]: -0.759 | glycan array binding signal (z-score) [25]: -0.778 | glycan array binding signal (z-score) [26]: 0.042 | glycan array binding signal (z-score) (Man(a1-3)[Man(a1-6)]Man): -0.052 | glycan array binding signal (z-score) [27]: 0.33 | glycan array binding signal (z-score) [28]: -0.728 | glycan array binding signal (z-score) [29]: -1.04 | glycan array binding signal (z-score) [30]: -0.322 | glycan array binding signal (z-score) [31]: -0.043 | glycan array binding signal (z-score) (Man(a1-6)Man): -0.195 | glycan array binding signal (z-score) (Man(b1-4)GlcNAc): -0.23 | glycan array binding signal (z-score) (MurNAc(b1-4)GlcNAc): -0.448
